Laboratory results published in the supplement of paper PMC12819154, “High-throughput peptide-centric local stability assay extends protein–ligand identification to membrane proteins, tissues and bacteria” (Nature Structural & Molecular Biology, 2025).
The other results are listed elsewhere or left out. Most values lie at the level of the controls, where differences are scatter.

The chains behind the UniProt entries cited, without tags or fusion partners. Where a name states a change or a piece, a line headed by the entry shows the natural chain unless it says otherwise.
UniProt Q7TNC4: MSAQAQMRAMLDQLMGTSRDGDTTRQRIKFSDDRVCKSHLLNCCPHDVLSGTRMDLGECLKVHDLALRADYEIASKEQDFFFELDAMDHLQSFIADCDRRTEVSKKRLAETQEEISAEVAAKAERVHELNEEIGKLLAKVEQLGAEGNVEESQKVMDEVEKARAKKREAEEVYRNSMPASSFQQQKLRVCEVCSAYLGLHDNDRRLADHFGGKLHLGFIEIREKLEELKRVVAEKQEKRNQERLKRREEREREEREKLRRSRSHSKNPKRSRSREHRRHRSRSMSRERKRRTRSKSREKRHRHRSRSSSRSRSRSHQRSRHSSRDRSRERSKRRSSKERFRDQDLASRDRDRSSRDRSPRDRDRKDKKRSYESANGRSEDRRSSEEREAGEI
UniProt Q7TPS5: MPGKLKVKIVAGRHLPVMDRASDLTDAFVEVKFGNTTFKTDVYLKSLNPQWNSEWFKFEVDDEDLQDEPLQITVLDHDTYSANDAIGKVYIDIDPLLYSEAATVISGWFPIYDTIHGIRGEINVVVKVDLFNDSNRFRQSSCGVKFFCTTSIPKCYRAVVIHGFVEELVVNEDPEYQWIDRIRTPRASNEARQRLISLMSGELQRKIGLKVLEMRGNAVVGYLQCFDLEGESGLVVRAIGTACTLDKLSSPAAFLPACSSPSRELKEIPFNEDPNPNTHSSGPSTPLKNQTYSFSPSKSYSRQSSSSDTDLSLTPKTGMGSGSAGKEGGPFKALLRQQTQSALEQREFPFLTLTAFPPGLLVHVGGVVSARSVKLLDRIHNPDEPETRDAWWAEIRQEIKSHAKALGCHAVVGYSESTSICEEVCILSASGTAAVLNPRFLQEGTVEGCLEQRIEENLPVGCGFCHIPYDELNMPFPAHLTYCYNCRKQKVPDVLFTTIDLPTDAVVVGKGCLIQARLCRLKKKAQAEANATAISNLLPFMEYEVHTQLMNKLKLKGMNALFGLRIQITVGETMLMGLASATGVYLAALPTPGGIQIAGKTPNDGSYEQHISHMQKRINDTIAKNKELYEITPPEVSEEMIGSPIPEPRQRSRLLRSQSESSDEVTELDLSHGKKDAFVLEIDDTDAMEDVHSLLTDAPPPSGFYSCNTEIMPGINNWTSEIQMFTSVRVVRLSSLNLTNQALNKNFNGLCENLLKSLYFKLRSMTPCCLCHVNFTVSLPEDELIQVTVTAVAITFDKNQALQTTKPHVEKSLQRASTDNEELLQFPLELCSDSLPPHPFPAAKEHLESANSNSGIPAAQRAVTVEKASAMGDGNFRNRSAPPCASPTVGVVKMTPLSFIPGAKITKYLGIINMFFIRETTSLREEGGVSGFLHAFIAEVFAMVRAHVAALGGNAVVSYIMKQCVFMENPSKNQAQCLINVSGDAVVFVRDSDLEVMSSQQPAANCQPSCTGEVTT
UniProt Q80SY5: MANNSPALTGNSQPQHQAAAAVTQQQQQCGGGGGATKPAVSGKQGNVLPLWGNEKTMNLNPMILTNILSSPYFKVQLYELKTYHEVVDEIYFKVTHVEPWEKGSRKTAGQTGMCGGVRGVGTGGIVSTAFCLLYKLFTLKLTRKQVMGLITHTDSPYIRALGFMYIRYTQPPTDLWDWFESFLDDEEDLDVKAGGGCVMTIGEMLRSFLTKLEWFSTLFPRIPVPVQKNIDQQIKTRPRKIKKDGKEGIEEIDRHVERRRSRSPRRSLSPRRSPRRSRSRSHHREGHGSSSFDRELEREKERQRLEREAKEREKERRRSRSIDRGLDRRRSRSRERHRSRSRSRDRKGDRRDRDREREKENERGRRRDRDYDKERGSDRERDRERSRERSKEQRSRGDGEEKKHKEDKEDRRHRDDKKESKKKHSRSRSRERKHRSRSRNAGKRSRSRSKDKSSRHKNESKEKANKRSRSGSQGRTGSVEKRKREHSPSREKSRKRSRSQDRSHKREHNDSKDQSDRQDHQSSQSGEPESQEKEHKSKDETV
UniProt Q80UU1: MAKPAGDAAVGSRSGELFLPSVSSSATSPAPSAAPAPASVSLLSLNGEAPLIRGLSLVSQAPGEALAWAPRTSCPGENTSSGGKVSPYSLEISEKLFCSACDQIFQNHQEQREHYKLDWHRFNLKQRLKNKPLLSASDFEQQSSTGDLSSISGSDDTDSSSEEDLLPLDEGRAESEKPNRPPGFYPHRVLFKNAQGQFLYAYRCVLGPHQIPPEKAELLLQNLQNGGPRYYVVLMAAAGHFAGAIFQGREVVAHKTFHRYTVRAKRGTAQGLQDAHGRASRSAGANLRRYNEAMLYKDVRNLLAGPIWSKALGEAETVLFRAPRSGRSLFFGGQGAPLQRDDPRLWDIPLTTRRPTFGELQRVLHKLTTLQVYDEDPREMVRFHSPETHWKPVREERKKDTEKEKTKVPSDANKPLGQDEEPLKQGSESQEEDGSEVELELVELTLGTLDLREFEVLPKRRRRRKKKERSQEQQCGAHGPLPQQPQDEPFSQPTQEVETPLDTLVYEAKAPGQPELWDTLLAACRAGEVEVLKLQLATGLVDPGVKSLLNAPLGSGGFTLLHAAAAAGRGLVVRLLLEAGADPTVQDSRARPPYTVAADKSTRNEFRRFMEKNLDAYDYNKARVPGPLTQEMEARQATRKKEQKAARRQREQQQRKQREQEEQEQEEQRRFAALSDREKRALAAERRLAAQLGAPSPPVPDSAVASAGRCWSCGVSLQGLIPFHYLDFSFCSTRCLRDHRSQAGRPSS
UniProt Q6ZQ73: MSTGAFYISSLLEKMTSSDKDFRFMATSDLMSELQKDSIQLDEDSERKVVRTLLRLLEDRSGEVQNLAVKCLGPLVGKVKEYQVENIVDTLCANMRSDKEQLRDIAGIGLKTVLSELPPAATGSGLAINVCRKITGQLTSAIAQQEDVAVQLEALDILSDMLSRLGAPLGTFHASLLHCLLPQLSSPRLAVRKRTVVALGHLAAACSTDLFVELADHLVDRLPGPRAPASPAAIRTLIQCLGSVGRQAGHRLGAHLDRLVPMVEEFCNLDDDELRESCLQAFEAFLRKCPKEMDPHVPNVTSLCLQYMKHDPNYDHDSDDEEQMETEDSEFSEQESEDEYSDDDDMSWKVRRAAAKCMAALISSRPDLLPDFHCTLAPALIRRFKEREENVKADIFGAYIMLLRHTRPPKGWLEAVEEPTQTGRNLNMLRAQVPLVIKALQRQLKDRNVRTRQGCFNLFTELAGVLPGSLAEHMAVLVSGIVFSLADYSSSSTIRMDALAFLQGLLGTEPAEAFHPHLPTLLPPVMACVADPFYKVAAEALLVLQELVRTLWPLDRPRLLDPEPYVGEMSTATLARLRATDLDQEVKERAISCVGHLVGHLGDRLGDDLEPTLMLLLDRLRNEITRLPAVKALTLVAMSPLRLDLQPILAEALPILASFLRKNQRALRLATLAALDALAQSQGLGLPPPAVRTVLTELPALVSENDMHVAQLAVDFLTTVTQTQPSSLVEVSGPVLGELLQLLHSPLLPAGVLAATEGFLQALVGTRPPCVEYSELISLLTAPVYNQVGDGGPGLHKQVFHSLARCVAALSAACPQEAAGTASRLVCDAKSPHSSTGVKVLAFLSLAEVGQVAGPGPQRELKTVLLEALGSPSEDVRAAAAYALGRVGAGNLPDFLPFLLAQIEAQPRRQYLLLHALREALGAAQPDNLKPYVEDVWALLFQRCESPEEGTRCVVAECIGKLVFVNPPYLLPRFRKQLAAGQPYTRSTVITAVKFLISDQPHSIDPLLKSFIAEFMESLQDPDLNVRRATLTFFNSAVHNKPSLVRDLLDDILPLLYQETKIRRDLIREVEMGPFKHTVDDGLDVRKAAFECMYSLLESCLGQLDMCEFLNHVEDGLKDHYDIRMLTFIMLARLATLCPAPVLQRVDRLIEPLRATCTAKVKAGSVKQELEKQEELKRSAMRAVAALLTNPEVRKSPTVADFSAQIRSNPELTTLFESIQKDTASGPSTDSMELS
UniProt Q80U44: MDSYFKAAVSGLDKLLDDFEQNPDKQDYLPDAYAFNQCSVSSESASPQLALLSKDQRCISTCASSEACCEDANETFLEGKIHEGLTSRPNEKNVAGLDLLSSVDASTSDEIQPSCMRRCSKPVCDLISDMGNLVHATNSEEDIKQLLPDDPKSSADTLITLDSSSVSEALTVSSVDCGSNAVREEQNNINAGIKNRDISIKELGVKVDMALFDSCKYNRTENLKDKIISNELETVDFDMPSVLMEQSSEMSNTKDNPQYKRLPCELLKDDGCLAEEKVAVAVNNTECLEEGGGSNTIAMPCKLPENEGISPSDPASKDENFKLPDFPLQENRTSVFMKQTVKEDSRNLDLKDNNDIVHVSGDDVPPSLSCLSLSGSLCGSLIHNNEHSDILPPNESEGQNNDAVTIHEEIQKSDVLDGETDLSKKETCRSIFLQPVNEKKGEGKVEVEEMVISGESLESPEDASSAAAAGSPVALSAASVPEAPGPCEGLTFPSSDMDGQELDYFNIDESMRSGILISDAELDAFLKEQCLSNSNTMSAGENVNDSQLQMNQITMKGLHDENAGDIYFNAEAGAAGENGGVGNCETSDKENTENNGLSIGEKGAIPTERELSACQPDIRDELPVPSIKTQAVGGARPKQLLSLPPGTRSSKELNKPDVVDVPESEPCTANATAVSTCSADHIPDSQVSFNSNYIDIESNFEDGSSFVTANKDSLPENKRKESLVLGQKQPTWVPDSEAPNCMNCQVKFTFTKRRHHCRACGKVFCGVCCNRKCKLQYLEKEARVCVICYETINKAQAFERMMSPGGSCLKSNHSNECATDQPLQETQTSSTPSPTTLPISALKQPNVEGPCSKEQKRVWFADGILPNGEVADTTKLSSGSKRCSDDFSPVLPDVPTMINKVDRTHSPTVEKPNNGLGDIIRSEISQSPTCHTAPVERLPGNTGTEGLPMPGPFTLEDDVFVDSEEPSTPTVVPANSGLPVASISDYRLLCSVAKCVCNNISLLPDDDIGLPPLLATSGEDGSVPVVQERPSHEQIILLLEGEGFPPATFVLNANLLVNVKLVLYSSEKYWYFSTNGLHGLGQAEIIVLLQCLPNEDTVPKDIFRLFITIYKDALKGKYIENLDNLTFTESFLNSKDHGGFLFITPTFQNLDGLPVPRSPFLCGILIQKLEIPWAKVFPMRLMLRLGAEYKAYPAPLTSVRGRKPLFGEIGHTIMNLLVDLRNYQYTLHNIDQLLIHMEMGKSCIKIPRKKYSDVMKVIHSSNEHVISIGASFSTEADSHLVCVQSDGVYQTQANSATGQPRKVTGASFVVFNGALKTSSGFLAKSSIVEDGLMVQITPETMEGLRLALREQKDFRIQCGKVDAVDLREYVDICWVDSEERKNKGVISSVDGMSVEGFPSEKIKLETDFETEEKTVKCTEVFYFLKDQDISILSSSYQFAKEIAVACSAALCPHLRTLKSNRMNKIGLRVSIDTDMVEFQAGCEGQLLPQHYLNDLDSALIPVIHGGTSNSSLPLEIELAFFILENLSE
UniProt Q78YZ6: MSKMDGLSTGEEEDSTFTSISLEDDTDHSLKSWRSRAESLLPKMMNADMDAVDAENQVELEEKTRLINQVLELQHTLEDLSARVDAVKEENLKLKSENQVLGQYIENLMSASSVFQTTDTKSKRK
UniProt Q80V86, whole entry: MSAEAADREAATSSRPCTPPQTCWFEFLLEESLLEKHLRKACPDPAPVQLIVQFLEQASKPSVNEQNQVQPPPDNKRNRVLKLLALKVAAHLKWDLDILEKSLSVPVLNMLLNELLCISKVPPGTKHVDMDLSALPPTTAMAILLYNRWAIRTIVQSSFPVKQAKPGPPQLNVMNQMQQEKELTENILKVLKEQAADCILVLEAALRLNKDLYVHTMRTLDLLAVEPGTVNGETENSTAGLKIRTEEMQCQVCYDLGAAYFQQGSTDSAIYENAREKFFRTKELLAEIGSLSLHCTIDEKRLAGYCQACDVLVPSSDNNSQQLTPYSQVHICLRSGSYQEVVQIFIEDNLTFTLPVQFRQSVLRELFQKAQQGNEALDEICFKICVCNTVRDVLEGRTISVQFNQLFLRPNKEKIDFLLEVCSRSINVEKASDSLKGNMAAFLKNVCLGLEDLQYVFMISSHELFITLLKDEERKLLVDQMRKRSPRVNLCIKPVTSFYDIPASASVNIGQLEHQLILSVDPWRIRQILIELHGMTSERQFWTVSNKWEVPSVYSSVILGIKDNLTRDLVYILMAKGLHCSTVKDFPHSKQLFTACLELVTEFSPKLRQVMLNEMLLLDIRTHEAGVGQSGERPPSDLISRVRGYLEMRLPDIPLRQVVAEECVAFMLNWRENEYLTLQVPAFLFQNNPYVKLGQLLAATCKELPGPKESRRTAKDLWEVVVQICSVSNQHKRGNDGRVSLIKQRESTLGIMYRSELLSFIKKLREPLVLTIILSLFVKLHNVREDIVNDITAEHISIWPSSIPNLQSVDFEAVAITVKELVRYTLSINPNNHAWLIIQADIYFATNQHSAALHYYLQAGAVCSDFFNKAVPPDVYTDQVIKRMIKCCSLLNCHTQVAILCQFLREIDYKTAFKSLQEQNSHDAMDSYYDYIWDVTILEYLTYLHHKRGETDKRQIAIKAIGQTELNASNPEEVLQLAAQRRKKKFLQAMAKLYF

What follows are targets tested with CN[C@@H]1C[C@H]2O[C@@](C)([C@@H]1OC)n1c3ccccc3c3c4c(c5c6ccccc6n2c5c31)C(=O)NC4 [staurosporine] (assay: log2 fold change of tryptic peptide abundance, ligand vs vehicle (limited proteolysis) (log2 ratio); higher = more trypsin-susceptible (destabilized)). Details: ligand concentration: 20 uM; sample: mouse liver crude lysate; replicate design: treated separately.

For “UniProt Q7TNH6 (peptide sequence: EAETSLLGGK, peptide start residue: 1287)”, which log2 fold change is on record?
Its log2 fold change is -0.586.

For “UniProt Q7TNG5 (peptide sequence: LLVSADDFGKVHLFSYPCCQPR, peptide start residue: 587)”, which log2 fold change is on record?
Its log2 fold change is 0.254.

How did the log2 fold change turn out when “UniProt Q7TSS2 (peptide sequence: GNTLLLQHLK, peptide start residue: 141)” was run?
The log2 fold change was 0.308.

“UniProt Q6ZQM0 (peptide sequence: ACGVHFASTTR, peptide start residue: 63)” was tested. Which log2 fold change did it give?
The log2 fold change was 1.09.

With “UniProt Q80TQ2 (peptide sequence: IYGYVCATK, peptide start residue: 646)” as the target, how does the log2 fold change read?
The log2 fold change was -0.689.

Which log2 fold change does the source give for “UniProt Q7M757 (peptide sequence: LQELEQEK, peptide start residue: 273)” here?
Its log2 fold change is 0.0383.

For “UniProt Q7TSH3 (peptide sequence: SNLVFLTR, peptide start residue: 798)”, which log2 fold change is on record?
The log2 fold change was 0.552.

Which log2 fold change does the source give for “UniProt Q715T0 (peptide sequence: NIEVREK, peptide start residue: 170)” here?
The log2 fold change was -0.452.

“UniProt Q7TNC4 (peptide sequence: VHELNEEIGK, peptide start residue: 126)” was tested. Which log2 fold change did it give?
The log2 fold change was 0.0735.

How did the log2 fold change turn out when “UniProt Q7TPE5 (peptide sequence: LMWSKYPLDVQK, peptide start residue: 282)” was run?
Its log2 fold change is 0.288.

How did the log2 fold change turn out when “UniProt Q711T7 (peptide sequence: VDLVTMATSK, peptide start residue: 213)” was run?
The log2 fold change was -0.464.

“UniProt Q7TPS5 (peptide sequence: ASAMGDGNFR, peptide start residue: 868)” was tested. Which log2 fold change did it give?
The log2 fold change was -0.221.

For “UniProt Q6ZPI3 (peptide sequence: AQSIYGIPHSTLEYK, peptide start residue: 371)”, which log2 fold change is on record?
The log2 fold change was -0.00327.

How did the log2 fold change turn out when “UniProt Q80V03 (peptide sequence: YVEIMSACHQR, peptide start residue: 119)” was run?
The log2 fold change was -0.341.

How did the log2 fold change turn out when “UniProt Q80SY5 (peptide sequence: EGHGSSSFDRELEREK, peptide start residue: 285)” was run?
The log2 fold change was -0.508.

“UniProt Q80UU1 (peptide sequence: GTAQGLQDAHGR, peptide start residue: 267)” was tested. Which log2 fold change did it give?
The log2 fold change was -0.244.

For “UniProt Q71FD5 (peptide sequence: DRPAGGGPGGPR, peptide start residue: 125)”, which log2 fold change is on record?
Its log2 fold change is -0.421.

With “UniProt Q6ZQ73 (peptide sequence: AVAALLTNPEVR, peptide start residue: 1183)” as the target, how does the log2 fold change read?
Its log2 fold change is 0.218.

With “UniProt Q7TQK4 (peptide sequence: RYVPVKGDHVIGIVIAK, peptide start residue: 107)” as the target, how does the log2 fold change read?
The log2 fold change was 0.531.

With “UniProt Q80U44 (peptide sequence: SDVLDGETDLSKKETCR, peptide start residue: 413)” as the target, how does the log2 fold change read?
Its log2 fold change is -0.452.

How did the log2 fold change turn out when “UniProt Q71RI9 (peptide sequence: AIILNTPHNPLGK, peptide start residue: 211)” was run?
The log2 fold change was -0.434.

With “UniProt Q78YZ6 (peptide sequence: VDAVKEENLK, peptide start residue: 84)” as the target, how does the log2 fold change read?
The log2 fold change was 0.0189.

“UniProt Q6ZPQ6 (peptide sequence: TISAQPSGPSHRHDR, peptide start residue: 1282)” was tested. Which log2 fold change did it give?
The log2 fold change was -0.636.

“UniProt Q80TE4 (peptide sequence: FSFITLGAK, peptide start residue: 829)” was tested. Which log2 fold change did it give?
Its log2 fold change is -0.189.

Which log2 fold change does the source give for “UniProt Q80V86 (peptide sequence: TIVQSSFPVK, peptide start residue: 153)” here?
Its log2 fold change is 0.466.

For “UniProt Q7TQH0 (peptide sequence: EEGPVTEQVKK, peptide start residue: 649)”, which log2 fold change is on record?
The log2 fold change was -0.534.

With “UniProt Q80UG1 (peptide sequence: SAPPGDGAAEALLK, peptide start residue: 6)” as the target, how does the log2 fold change read?
The log2 fold change was -0.241.

How did the log2 fold change turn out when “UniProt Q80TN5 (peptide sequence: LKADKEFR, peptide start residue: 295)” was run?
The log2 fold change was 0.0304.

With “UniProt Q6WVG3 (peptide sequence: RLGAPQQPGPGPPPPHSR, peptide start residue: 128)” as the target, how does the log2 fold change read?
The log2 fold change was 0.113.
